This note sets out measurements from PMC12218921, “An adaptive peptide-binding site in ubiquitin receptor hRpn13 revealed by structural studies” (Nature Communications, 2025).

Protein sequences, listed by entry. Tags and fused reporters are not part of them. Lines headed by an entry give the natural chain unless they say otherwise; changes in a name come on top. Chains listed by the source or under a name are the forms on record and can include a tag or linker.
hRpn13_ΔMTT (Q16186, form named): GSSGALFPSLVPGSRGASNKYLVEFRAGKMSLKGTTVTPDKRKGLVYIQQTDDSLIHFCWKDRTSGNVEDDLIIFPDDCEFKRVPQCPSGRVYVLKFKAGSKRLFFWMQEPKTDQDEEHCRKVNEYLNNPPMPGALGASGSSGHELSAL

Results are given in words; binding and its absence hold for the method and conditions named. Some results given as binding are weak or reduced against the parent protein; the word gives no strength.

One assay addresses hRpn13_ΔMTT (human) (UniProt Q16186). The assay can be described thus: NMR titration; 1H-15N HSQC of 0.1 mM 15N-labeled hRpn13_ΔMTT alone and with unlabeled ligand (peptides at varying molar ratios up to 20-fold excess; hRpn2 (940-953) or ubiquitin equimolar, alone or together with 20-fold EDGEGEE; K48-diUb at 4:1, 2:1 and 1:1 hRpn13 to diUb); NMR buffer (20 mM sodium phosphate pH 6.5, 50 mM NaCl, 1 mM TCEP, 10% D2O), 25 °C, 600 MHz; both purified.

Assay [1] concerns the target T1, TAMRA-labeled hRpn2 (940–953) (human).
T1 sequence (peptide, TAMRA (5-carboxytetramethylrhodamine) attached; position not stated): QEPEPPEPFEYIDD
The assay can be described thus: fluorescence polarisation; control: unlabeled peptides added to TAMRA-hRpn2 (940–953) without hRpn13 present; both purified. In general terms: Polarisation of emitted light reports the rotation of a fluorescent probe.

B1: EDGEGEE peptide (peptide)
peptide: EDGEGEE
For B1, the binding entry with hRpn13_ΔMTT (human) is reported as “binds weakly”; in assay [1] it was “no binding”.

B2: ENT_M1S peptide (GPGSSTT) (peptide)
peptide: GPGSSTT
As to B2, the binding entry with hRpn13_ΔMTT (human) is “binds weakly”.

B3: hRpn2 (944–953) (peptide)
peptide: PPEPFEYIDD
Regarding B3, the binding entry in assay [1] is “no binding”.

B4: ENT peptide (GPGSMTT) (peptide)
peptide: GPGSMTT
With B4, the binding result with hRpn13_ΔMTT (human) is “binds weakly”; in assay [1], “no binding”.

B5: hRpn2 (940–953) (peptide)
peptide: QEPEPPEPFEYIDD
In the case of B5, the binding result in assay [1] is “no binding”.
